# In PubChem BioAssay AID504444 (National Center for Advancing Translational Sciences (NCATS), 2011):
# Among all 360,000 compounds or so, about 7,500 (2.1%) were called active. The shares of active, inactive and inconclusive entries below differ from those in the screen. Calls follow the shape of the dose curve; as a rule, active = well fitted inhibition curve with a large enough effect; inconclusive = small, poorly fitted or top-dose-only effect, or effect the other way; inactive = flat fitted curve, though single readings scatter. Potencies of inconclusive entries are doubtful fits and often do not repeat.
# Assay: Nrf2 qHTS screen for inhibitors; also: nearly all actives have a fitted effect of over 60% in size
# Details: A549 ARE-Fluc reporter, luciferase luminescence, 18-24 h; series mostly up to 46 µM
# Method in brief: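 Nrf2 function is reported as luminescence of an ARE-controlled luciferase in A549 cells. Compounds were tested at several concentrations, and a CellTiter-Fluor read on the same wells flagged cytotoxicity.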
# Potency is read from the fitted curve at half-maximal effect.
row,Compound,Potency
1,COc1ccc2c(c1OC)C(=O)N(c1ccc(C)cc1)C2=O,"inconclusive: 23.1 µM [activator, single point]"
2,O=C(CN1CCN(Cc2ccccc2)CC1)Nc1cccc(S(=O)(=O)N2CCCCCC2)c1,"inconclusive: 25.9 µM [falling, partial curve, poor fit]"
3,CC1CCCCC1NC(=O)CN1C(=O)NC(C)(c2cccc(Br)c2)C1=O (stereo not drawn),"inconclusive: 25.9 µM [falling, single point]"
4,CN1CCc2nc(SCc3ccc(Cl)cc3)c(C#N)c(-c3cccs3)c2C1,inactive
5,CCOc1ccccc1-c1nn2c(Cc3ccccc3)nnc2s1,"inconclusive: 29.1 µM [falling, single point]"
6,CCNCc1cc([N+](=O)[O-])ccc1OCC,"inconclusive: 3.26 µM [falling, full curve, poor fit]"
7,Cc1ccc(C2=NC(c3ccc(F)cc3)=Nc3ccc(C)cc3N2)cc1,"inconclusive: 20.6 µM [activator, partial curve, poor fit]"
8,CC1CCCC(NC(=O)c2cccc(S(=O)(=O)N3CCN(c4ccccc4)CC3)c2)C1C (stereo not drawn),"inconclusive: 4.11 µM [falling, full curve, poor fit]"
9,O=C(Cc1cccc(NC(=O)C2CCCN(C(=O)C3CCC3)C2)c1)Nc1cccc(C(=O)N2CCCCC2)c1 (stereo not drawn),"inconclusive: 13 µM [falling, partial curve, poor fit]"
10,Cc1c(Br)c(C(=O)N2CCc3ccccc32)nn1C,"inconclusive: 20.6 µM [activator, partial curve]"
11,CC(=O)Nc1sc(NC(=O)c2ccc(C)cc2)nc1-c1cccs1,"inconclusive: 20.6 µM [falling, partial curve, poor fit]"
12,CC(C)(C)[C@H]1COC(=O)[C@H](NC(=O)OCC2c3ccccc3-c3ccccc32)C/C=C\C[C@@H](CC(=O)N[C@@H](CO)Cc2ccccc2)C(=O)N1,"inconclusive: 20.6 µM [falling, single point]"
13,COc1ccc(CCNC(=O)CSc2nc(-c3ccco3)cc(C(F)(F)F)n2)cc1,"inconclusive: 20.6 µM [falling, partial curve]"
14,Cc1nc(C(=O)Nc2ccc(Cl)cc2)nn1-c1ccc([N+](=O)[O-])cc1,inactive
15,Cc1noc(C)c1CSCC(=O)N1CCN(c2ccc([N+](=O)[O-])cc2)CC1,active: 20.6 µM
16,O=C(CCc1ccccc1)NNC(=O)c1ccc(Br)cc1,inactive
17,CSc1ccc(CNC(=O)Cc2csc3ccccc23)cc1,"inconclusive: 3.66 µM [activator, partial curve, poor fit]"
18,O=C(Cc1nn[nH]n1)c1ccccc1O,inactive
19,CCOc1ccc(Nc2nc3ccccc3n2C)cc1,"inconclusive: 4.61 µM [activator, full curve]"
20,COc1cc(OC)cc(-c2oc3cccnc3c2C#CCCO)c1,"inconclusive: 13 µM [falling, partial curve]"
21,Cc1ccccc1C(=O)Nc1ccc(N2CCN(C(=O)c3ccco3)CC2)cc1,"inconclusive: 20.6 µM [falling, partial curve, poor fit]"

# Some of these compounds in order of count of non-hydrogen atoms, rising.
row,Compound,Potency
18,O=C(Cc1nn[nH]n1)c1ccccc1O,inactive
6,CCNCc1cc([N+](=O)[O-])ccc1OCC,"inconclusive: 3.26 µM [falling, full curve, poor fit]"
10,Cc1c(Br)c(C(=O)N2CCc3ccccc32)nn1C,"inconclusive: 20.6 µM [activator, partial curve]"
16,O=C(CCc1ccccc1)NNC(=O)c1ccc(Br)cc1,inactive
1,COc1ccc2c(c1OC)C(=O)N(c1ccc(C)cc1)C2=O,"inconclusive: 23.1 µM [activator, single point]"
5,CCOc1ccccc1-c1nn2c(Cc3ccccc3)nnc2s1,"inconclusive: 29.1 µM [falling, single point]"
14,Cc1nc(C(=O)Nc2ccc(Cl)cc2)nn1-c1ccc([N+](=O)[O-])cc1,inactive
7,Cc1ccc(C2=NC(c3ccc(F)cc3)=Nc3ccc(C)cc3N2)cc1,"inconclusive: 20.6 µM [activator, partial curve, poor fit]"
4,CN1CCc2nc(SCc3ccc(Cl)cc3)c(C#N)c(-c3cccs3)c2C1,inactive
13,COc1ccc(CCNC(=O)CSc2nc(-c3ccco3)cc(C(F)(F)F)n2)cc1,"inconclusive: 20.6 µM [falling, partial curve]"
8,CC1CCCC(NC(=O)c2cccc(S(=O)(=O)N3CCN(c4ccccc4)CC3)c2)C1C (stereo not drawn),"inconclusive: 4.11 µM [falling, full curve, poor fit]"
2,O=C(CN1CCN(Cc2ccccc2)CC1)Nc1cccc(S(=O)(=O)N2CCCCCC2)c1,"inconclusive: 25.9 µM [falling, partial curve, poor fit]"
9,O=C(Cc1cccc(NC(=O)C2CCCN(C(=O)C3CCC3)C2)c1)Nc1cccc(C(=O)N2CCCCC2)c1 (stereo not drawn),"inconclusive: 13 µM [falling, partial curve, poor fit]"
12,CC(C)(C)[C@H]1COC(=O)[C@H](NC(=O)OCC2c3ccccc3-c3ccccc32)C/C=C\C[C@@H](CC(=O)N[C@@H](CO)Cc2ccccc2)C(=O)N1,"inconclusive: 20.6 µM [falling, single point]"

# Next part

row,Compound,Potency
1,O=C(Nc1ccc(N2CCOCC2)cc1Cl)C1CCN(C(=O)OCc2ccccc2)CC1,"inconclusive: 14.6 µM [falling, partial curve, poor fit]"
2,O=C(NCCc1nc2ccccc2n1CCCOc1ccccc1Cl)C1CCCCC1,"inconclusive: 29.1 µM [falling, single point]"
3,C/C(=N/OC(=O)c1ccc(C(F)(F)F)cc1)c1oc(C)nc1C,inactive
4,OCC1(CO)COC(/C=C/c2ccccc2)=N1,"inconclusive: 5.8 µM [activator, full curve]"
5,COc1ccc(-n2nnnc2C2CCN(S(=O)(=O)c3ccc(F)cc3Cl)CC2)cc1,"inconclusive: 16.4 µM [falling, single point]"
6,CN(CCc1ccccn1)C(=O)CCC1CCCN(C(=O)CCOc2ccccc2)C1 (stereo not drawn),"inconclusive: 6.51 µM [falling, partial curve]"
7,Cc1c(NC(=O)CSc2ccc(Cl)cc2)cccc1-c1nc2ncccc2o1,"inconclusive: 18.4 µM [falling, single point]"
8,CCOC(=O)N1CCN(C(=O)/C=C/c2c(C)nn(-c3ccc(F)cc3)c2Cl)CC1,"inconclusive: 29.1 µM [falling, single point]"
9,CCNS(=O)(=O)c1ccc(CCC(=O)N2CCN(c3cccc(Cl)c3)CC2)cc1,"inconclusive: 23.1 µM [falling, single point]"
10,Cc1cc(C)nc(Nc2ccc(C(=O)O)cc2)n1,"inconclusive: 0.517 µM [activator, full curve, poor fit]"
11,Fc1ccc(Nc2nc(N/N=C/c3ccco3)nc(N3CCCCC3)n2)cc1,active: 18.4 µM
12,COc1ccc(NS(=O)(=O)c2ccc(NC(=O)C3CC3)cc2)cc1,"inconclusive: 23.1 µM [falling, single point]"
13,CC(=O)Nc1ccc(NC(=O)Cn2c(=O)n(-c3ccc(C)cc3)c(=O)c3oc4ccccc4c32)cc1,"inconclusive: 0.0291 µM [falling, full curve, poor fit]"
14,COc1ccc(NS(=O)(=O)c2ccc3c(c2)Cc2ccccc2-3)cn1,active: 16.4 µM
15,Cc1cc(C(=O)CN2c3cccc4cccc(c34)S2(=O)=O)c(C)n1C,"inconclusive: 23.1 µM [activator, single point]"
16,Cc1ccc(C)c(N2CCN(S(=O)(=O)CC34CCC(CC3=O)C4(C)C)CC2)c1 (stereo not drawn),"inconclusive: 29.1 µM [falling, single point]"
17,COc1cc2c3nnc(-c4ccccc4)c-3cn(Cc3ccccc3F)c2cc1OC,inactive
18,COc1cc(NC(=O)Cn2c(=O)n(CC(=O)NCCc3ccc(OC)c(OC)c3)c(=O)c3sccc32)cc(OC)c1,"inconclusive: 6.51 µM [falling, single point]"
19,Oc1ccc(Br)cc1/C=N/n1cnc2ccccc21,"inconclusive: 29.1 µM [activator, single point]"
20,COc1ccc(C(=O)NCCc2ccc(C(F)(F)F)cc2)cc1S(=O)(=O)N1CCOCC1,"inconclusive: 18.4 µM [falling, partial curve]"
21,CCC(=O)Nc1cc2c(cc1Cl)-c1ccccc1C2,"inconclusive: 13 µM [activator, partial curve]"

row,Compound,Potency
1,COc1ccc(O)c(C2NC(CC(C)C)(C(=O)O)C3C(=O)N(Cc4ccccc4)C(=O)C23)c1 (stereo not drawn),"inconclusive: 29.1 µM [falling, single point]"
2,C=CCN(C(=O)C1CC(=O)N(C2CCCC2)C1)c1nc(-c2ccc(S(C)(=O)=O)cc2)cs1 (stereo not drawn),"inconclusive: 23.1 µM [falling, single point]"
3,CCc1ccccc1NC(=O)CN(C)Cc1nc(N)nc(Nc2ccccc2C)n1,inactive
4,COc1ccc(Cl)cc1NC(=O)Cn1ncc2c3ccccc3n(Cc3ccccc3)c2c1=O,inactive
5,CN1CCN(C(=O)CCC(=O)c2ccc(F)cc2)CC1,"inconclusive: 9.2 µM [activator, partial curve, poor fit]"
6,O=C(N1CCc2[nH]c3ccccc3c2C1)C(F)(F)F,"inconclusive: 0.259 µM [falling, partial curve, poor fit]"
7,CCOC(=O)c1[nH]c2ccccc2c1NC(=O)NC1CCCCC1,"inconclusive: 6.51 µM [falling, single point]"
8,CCOC(=O)/C(C#N)=C\c1c(C)cc(C)c(COC(C)=O)c1C,"inconclusive: 1.3 µM [falling, partial curve, poor fit]"
9,Cc1c(C(=O)N/N=C/c2cccnc2)sc(N)c1C#N,"inconclusive: 20.6 µM [falling, single point]"
10,CC(C)(C)NC(NC(=O)Cc1ccccc1)C(Cl)(Cl)Cl (stereo not drawn),"inconclusive: 1.46 µM [falling, full curve]"
11,CCCN(CC(=O)Nc1ccccc1C)C(=O)c1ccc2c(c1)S(=O)(=O)N=C1CCCCCN12,"inconclusive: 0.651 µM [falling, full curve, poor fit]"
12,N/C(=N\OC(=O)/C=C/c1ccccc1Cl)c1ccncc1,"inconclusive: 7.31 µM [activator, partial curve]"
13,O=C(N/N=C\c1ccc([N+](=O)[O-])o1)c1cncc(Br)c1,"inconclusive: 23.1 µM [falling, single point]"
14,CCN1C(=O)CSC1=Nc1ccc(Cl)c(Cl)c1,"inconclusive: 18.4 µM [falling, single point]"
15,O=C(O)CSc1nnc(NC(=O)c2ccc3c(c2)OCO3)s1,"inconclusive: 16.4 µM [falling, partial curve, poor fit]"
16,Cc1ccc2ncc(S(=O)(=O)c3ccccc3)c(N3CCCCC3C)c2c1 (stereo not drawn),"inconclusive: 23.1 µM [falling, single point]"
17,O=C(Nc1ccon1)c1ccc(OC2CCCC2)cc1,"inconclusive: 1.16 µM [activator, full curve]"
18,Cn1c(=O)c2nc(SCc3ccccc3)n(C)c2n(C)c1=O,"inconclusive: 23.1 µM [falling, partial curve, poor fit]"
19,CCOC(=O)c1cccc(NC(=O)c2cc3c(=O)n(C)c4ccccc4c3n2C)c1,"inconclusive: 2.31 µM [falling, partial curve, poor fit]"
20,O=C(/C=C/c1ccc(Cl)c([N+](=O)[O-])c1)Nc1cccc(NC(=O)c2ccco2)c1,inactive
21,CCc1c2c(nc3ccc(OC)cc13)-c1nc3ccccc3c(=O)n1C2,"inconclusive: 7.31 µM [activator, partial curve]"
